The data set concerns Arabidopsis thaliana PPC1 (AtPPC1, C3 PEPC). Briefly: malate dehydrogenase coupled PEPC enzymatic assay, Arabidopsis C3 PPC1 and engineered variants. Format: biochemical. More on the design: key to M (model of inhibition): MX—mixed; CO—competitive; NC—non-competitive. The conditions noted are these: for M (model of inhibition): inhibition by malate. From the text:
For both Arabidopsis C3 PPC1 (AtPPC1) and maize C4 PPC1 (ZmPPC1), the entire coding sequence for each was cloned into pET22b, which contains an amino-terminal 6×-HIS tag for protein purification, and expression was driven by the T7 promoter and lac operon. Relevant mutations were introduced by the Stratagene QuikChange mutagenesis kit using PCR amplification. Both wild type and mutant cDNA constructs were sequenced entirely following cloning into pet22b. Proteins were produced by growing transformed E. coli (BL21 CodonPlus) in autoinduction medium at 18° C. for 16 hours. Proteins were isolated by sonication of bacterial cells followed by passage over a nickel sepharose affinity column, elution with imidazole and separation on a GE SUPERDEX HILOAD 200 PG 16/60 all using an AKTA FPLC.
Enzyme analysis was conducted in vitro using protein that was generated by expression in E. coli using the pET22b vector. For expression, pET22b constructs were transformed into E. coli BL21-DE3 codon plus RIL cells and grown at 37° C. in autoinduction media until reaching an OD=1 after which these were transferred to 18° C. for 18 hours. Samples were collected and lysed by sonication. Protein was purified by passage through a His-trap nickel affinity column on an Akta FPLC and then eluted with 400 mM imidazole. Partially purified protein was then separated on an FPLC equipped with a HiPrep S200 size exclusion column (16/60) after which collected sample was concentrated by centrifugation to a final concentration of 4 mg/ml in 50% glycerol. Samples were stored at −20° C.
For enzymatic assays, a malate dehydrogenase coupled reaction was conducted with a range of substrate concentrations (0-7.5 mM phosphoenolpyruvate pyruvate) and a range of concentrations of allosteric inhibitor (0-50 mM malate). Assays were monitored using a Victor2 microplate reader at 25° C. Reactions consisted of […] PPC enzyme variants, 50 mM HEPES pH7.5, 10 mM MgCl2, 10 mM KHCO3 (carbonate substrate), 0.2 mM NADH, and 10 units/ml of malate dehydrogenase. Reaction time was 15 minutes and samples were measured on an ˜40 second interval. For measurement, which monitors loss of NADH, excitation wavelength was 340 nM and emission wavelength was 460 nM. From these assays, the enzyme kinetics of Tables 4-1 and 4-2 were determined for each enzyme variant.

B1: AtPPC1 wild type: wild type Arabidopsis thaliana PPC1, C3 PEPC, SEQ ID NO:1 (protein)
chain: MANRKLEKMASIDVHLRQLVPGKVSEDDKLVEYDALLLDRFLDILQDLHGEDLRETVQELYEHSAEYEGKHEPKKLEELGSVLTSLDPGDSIVIAKAFSHMLNLANLAEEVQIAYRRRIKKLKKGDFVDESSATTESDLEETFKKLVGDLNKSPEEIFDALKNQTVDLVLTAHPTQSVRRSLLQKHGRIRDCLAQLYAKDITPDDKQELDEALQREIQAAFRTDEIKRTPPTPQDEMRAGMSYFHETIWKGVPKFLRRVDTALKNIGIEERVPYNAPLIQFSSWMGGDRDGNPRVTPEVTRDVCLLARMMAATMYFNQIEDLMFEMSMWRCNDELRARADEVHANSRKDAAKHYIEFWKSIPTTEPYRVILGDVRDKLYHTRERAHQLLSNGHSDVPVEATFINLEQFLEPLELCYRSLCSCGDRPIADGSLLDFLRQVSTFGLSLVRLDIRQESDRHTDVLDAITTHLDIGSYREWSEERRQEWLLSELSGKRPLFGSDLPKTEEIADVLDTFHVIAELPADSFGAYIISMATAPSDVLAVELLQRECRVKQPLRVVPLFEKLADLEAAPAAVARLFSVDWYKNRINGKQEVMIGYSDSGKDAGRLSAAWQLYKAQEELVKVAKEYGVKLTMFHGRGGTVGRGGGPTHLAILSQPPDTINGSLRVTVQGEVIEQSFGEEHLCFRTLQRFTAATLEHGMRPPISPKPEWRALLDEMAVVATEEYRSVVFQEPRFVEYFRLATPELEYGRMNIGSRPSKRKPSGGIESLRAIPWIFAWTQTRFHLPVWLGFGSAIRHVIEKDVRNLHMLQDMYQHWPFFRVTIDLIEMVFAKGDPGIAALYDKLLVSEELWPFGEKLRANFEETKKLILQTAGHKDLLEGDPYLKQRLRLRDSYITTLNVCQAYTLKRIRDPSYHVTLRPHISKEIAESSKPAKELIELNPTSEYAPGLEDTLILTMKGIAAGLQNTG
With B1, the “model of inhibition by malate” value is “both a competitive and non-competitive way”; the “M (model of inhibition)” value is on record as “MX”.

B2: AtPPC1 R886G: engineered Arabidopsis thaliana PPC1 enzyme with R886G substitution (protein, UniProt Q9MAH0 1-967, looked up, variant R886G)
Phosphoenolpyruvate …: MANRKLEKMASIDVHLRQLVPGKVSEDDKLVEYDALLLDRFLDILQDLHGEDLRETVQELYEHSAEYEGKHEPKKLEELGSVLTSLDPGDSIVIAKAFSHMLNLANLAEEVQIAYRRRIKKLKKGDFVDESSATTESDLEETFKKLVGDLNKSPEEIFDALKNQTVDLVLTAHPTQSVRRSLLQKHGRIRDCLAQLYAKDITPDDKQELDEALQREIQAAFRTDEIKRTPPTPQDEMRAGMSYFHETIWKGVPKFLRRVDTALKNIGIEERVPYNAPLIQFSSWMGGDRDGNPRVTPEVTRDVCLLARMMAATMYFNQIEDLMFEMSMWRCNDELRARADEVHANSRKDAAKHYIEFWKSIPTTEPYRVILGDVRDKLYHTRERAHQLLSNGHSDVPVEATFINLEQFLEPLELCYRSLCSCGDRPIADGSLLDFLRQVSTFGLSLVRLDIRQESDRHTDVLDAITTHLDIGSYREWSEERRQEWLLSELSGKRPLFGSDLPKTEEIADVLDTFHVIAELPADSFGAYIISMATAPSDVLAVELLQRECRVKQPLRVVPLFEKLADLEAAPAAVARLFSVDWYKNRINGKQEVMIGYSDSGKDAGRLSAAWQLYKAQEELVKVAKEYGVKLTMFHGRGGTVGRGGGPTHLAILSQPPDTINGSLRVTVQGEVIEQSFGEEHLCFRTLQRFTAATLEHGMRPPISPKPEWRALLDEMAVVATEEYRSVVFQEPRFVEYFRLATPELEYGRMNIGSRPSKRKPSGGIESLRAIPWIFAWTQTRFHLPVWLGFGSAIRHVIEKDVRNLHMLQDMYQHWPFFRVTIDLIEMVFAKGDPGIAALYDKLLVSEELWPFGEKLRANFEETKKLILQTAGHKDLLEGDPYLKQGLRLRDSYITTLNVCQAYTLKRIRDPSYHVTLRPHISKEIAESSKPAKELIELNPTSEYAPGLEDTLILTMKGIAAGLQNTG
With B2, the “model of inhibition by malate” value is reported as “competitive” and the “M (model of inhibition)” value is reported as “CO”.

B3: AtPPC1 A651V: engineered Arabidopsis thaliana PPC1 with A651V substitution (alr-108), SEQ ID NO:10 (protein)
chain: MANRKLEKMASIDVHLRQLVPGKVSEDDKLVEYDALLLDRFLDILQDLHGEDLRETVQELYEHSAEYEGKHEPKKLEELGSVLTSLDPGDSIVIAKAFSHMLNLANLAEEVQIAYRRRIKKLKKGDFVDESSATTESDLEETFKKLVGDLNKSPEEIFDALKNQTVDLVLTAHPTQSVRRSLLQKHGRIRDCLAQLYAKDITPDDKQELDEALQREIQAAFRTDEIKRTPPTPQDEMRAGMSYFHETIWKGVPKFLRRVDTALKNIGIEERVPYNAPLIQFSSWMGGDRDGNPRVTPEVTRDVCLLARMMAATMYFNQIEDLMFEMSMWRCNDELRARADEVHANSRKDAAKHYIEFWKSIPTTEPYRVILGDVRDKLYHTRERAHQLLSNGHSDVPVEATFINLEQFLEPLELCYRSLCSCGDRPIADGSLLDFLRQVSTFGLSLVRLDIRQESDRHTDVLDAITTHLDIGSYREWSEERRQEWLLSELSGKRPLFGSDLPKTEEIADVLDTFHVIAELPADSFGAYIISMATAPSDVLAVELLQRECRVKQPLRVVPLFEKLADLEAAPAAVARLFSVDWYKNRINGKQEVMIGYSDSGKDAGRLSAAWQLYKAQEELVKVAKEYGVKLTMFHGRGGTVGRGGGPTHLVILSQPPDTINGSLRVTVQGEVIEQSFGEEHLCFRTLQRFTAATLEHGMRPPISPKPEWRALLDEMAVVATEEYRSVVFQEPRFVEYFRLATPELEYGRMNIGSRPSKRKPSGGIESLRAIPWIFAWTQTRFHLPVWLGFGSAIRHVIEKDVRNLHMLQDMYQHWPFFRVTIDLIEMVFAKGDPGIAALYDKLLVSEELWPFGEKLRANFEETKKLILQTAGHKDLLEGDPYLKQRLRLRDSYITTLNVCQAYTLKRIRDPSYHVTLRPHISKEIAESSKPAKELIELNPTSEYAPGLEDTLILTMKGIAAGLQNTG
For B3, the “model of inhibition by malate” value is listed as “competitive” and the “M (model of inhibition)” value is “CO”.

B4: AtPPC1 T778I: engineered Arabidopsis thaliana PPC1 with T778I substitution (alr-139), SEQ ID NO:12 (protein)
chain: MANRKLEKMASIDVHLRQLVPGKVSEDDKLVEYDALLLDRFLDILQDLHGEDLRETVQELYEHSAEYEGKHEPKKLEELGSVLTSLDPGDSIVIAKAFSHMLNLANLAEEVQIAYRRRIKKLKKGDFVDESSATTESDLEETFKKLVGDLNKSPEEIFDALKNQTVDLVLTAHPTQSVRRSLLQKHGRIRDCLAQLYAKDITPDDKQELDEALQREIQAAFRTDEIKRTPPTPQDEMRAGMSYFHETIWKGVPKFLRRVDTALKNIGIEERVPYNAPLIQFSSWMGGDRDGNPRVTPEVTRDVCLLARMMAATMYFNQIEDLMFEMSMWRCNDELRARADEVHANSRKDAAKHYIEFWKSIPTTEPYRVILGDVRDKLYHTRERAHQLLSNGHSDVPVEATFINLEQFLEPLELCYRSLCSCGDRPIADGSLLDFLRQVSTFGLSLVRLDIRQESDRHTDVLDAITTHLDIGSYREWSEERRQEWLLSELSGKRPLFGSDLPKTEEIADVLDTFHVIAELPADSFGAYIISMATAPSDVLAVELLQRECRVKQPLRVVPLFEKLADLEAAPAAVARLFSVDWYKNRINGKQEVMIGYSDSGKDAGRLSAAWQLYKAQEELVKVAKEYGVKLTMFHGRGGTVGRGGGPTHLAILSQPPDTINGSLRVTVQGEVIEQSFGEEHLCFRTLQRFTAATLEHGMRPPISPKPEWRALLDEMAVVATEEYRSVVFQEPRFVEYFRLATPELEYGRMNIGSRPSKRKPSGGIESLRAIPWIFAWIQTRFHLPVWLGFGSAIRHVIEKDVRNLHMLQDMYQHWPFFRVTIDLIEMVFAKGDPGIAALYDKLLVSEELWPFGEKLRANFEETKKLILQTAGHKDLLEGDPYLKQRLRLRDSYITTLNVCQAYTLKRIRDPSYHVTLRPHISKEIAESSKPAKELIELNPTSEYAPGLEDTLILTMKGIAAGLQNTG
Turning to B4, the “model of inhibition by malate” value was “competitive” and the “M (model of inhibition)” value is “CO”.

The values above are taken from patent US12168773B2, “Engineered phosphoenolpyruvate carboxylase enzymes” (The Regents of the University of California, priority 2019, dated 2024).
